Test results as given in article PMC7264160.
These are yes or no findings as the source states them, for the method shown. Binding seen in cells or lysates may run through a third protein. These calls come from enrichment with a bait or labelling near it, and not all partners need be listed.

These binders were tested against Nascent polypeptide-associated complex (NAC) protein of Picrophilus torridus (Picrophilus torridus) (assay: affinity purification with mass spectrometry; His6-PtNAC held on Co2+-NTA-agarose beads in a column; 10 ml P. torridus cell lysate added, overnight at 4°C on a rocker; washed with 1X PBS; eluted with 1X PBS with 200 mM imidazole; SDS-PAGE and LC-MS/MS; 5% false-discovery rate cutoff, minimum of two peptides per protein; only the target …).

Binder | binding
Glutamate dehydrogenase (protein, UniProt Q6KZF2 1-415) MEDLDPFTISRQQLQKAAKVMNLDKQALEILSYPREILQVSIPVKMDSGEVKVFTGFRVHYNNARGPTKGGIRYYEKENLSEVMALSAWMTWKTALLDLPLGGAKGGIICNPKELSQGELERLSRGYIDAIADFIGPDKDIPAPDVYTNPQIMAWMMDEYEKVMRRSSPGVITGKPLAVGGSEGRGDATAKGGMYVLREAARSIGLDLSKAKVAVQGFGNAGQYAVKFATEMFGAKVVAVSDSTGGIYAKDGVNYEKLLEHKRKDGTVMNYDGSENISEEEVLEQDVDVLIPAAIEDQIRGDNASKIKAKIILELANGPTTPEADEILYKNNVLVLPDFLSNAGGVTVSYFEWVQNVTGDYWDEETVYSKLDKKMTAATRSVLETSKRYEVDPRTAAYIIAVKKVADAMKARGWY | binds
Elongation factor 1-alpha (protein, UniProt Q6L202 1-424) MASEKPHMNLVIIGHVDHGKSTLVGRLLFEHGEIPQHIIDEYKKEAEEKGKATFEFAWVMDRFKEERERGVTIDLTHRKFETDKYYFTIIDAPGHRDFVKNMITGTSQADAAVLVVSAREGEGVMAQTKEHAFLARTLGVPQLIAVVNKMDATQPPYSEKRFNEVKDEITKLLTPIGFKNVPIIPLSGYKGDNIMKPSPNLSWWKGPTLMEALNALQVPAKPVDKPLRLPVEDVYSITGIGTVPVGRIETGVMKVGDKVIFMPANKAGDVKSIEMHHEPMQQAGPGDNIGFNVRGIAKNELKRGDVCGPANNPPTVVKGFTAQIVVLNHPSVIAAGYKPVFHVHTAQVACRIDEIVKTINPKDGTTLKEKPDFIKTGDIAIVKVVPDRALVIEKVSEFPQLGRFAIRDMGMTVAAGQCIDLEKA | binds
50S ribosomal protein L12 (protein, UniProt Q6L1X7 1-101) MEYIYGALLLHSAGKEIDENNLKKILEDAGVNADEARLKSLVESMKNINIEDVLKNAAAAPVAAPAPAKEEKKEEKKEEKKEEKKEESEADAMQGLSSLFG | binds

The next lines start with the values.

binding | Binder
binds | Protein secretion chaperonin CsaA (protein, UniProt Q6L208 1-107) MITYNDFSKIDIRVGIIKEVSDFKEAIKPAYKLKIYFGDIIGYKNSSAQITNYKKDELINKKIIAVVNFPPKQIANFISEVLVLGAITGDGVKLLTPDGGEPGDKIA
binds | Homoserine dehydrogenase (protein, UniProt Q6KZ50 1-328) MRISIIGLGHIGLSVLDIIKSRNDDYRKNNNGISIVSASDSKLTLYNENGLDPGKIINYKKSKRLEEIDYEKIKFDEIFEIKPDVIVDVSPATKDGIRGKNLYINAFEHGIDIVTANKAPLALHWHDIMDSASKNRRIIRYEASVGGGVPLFNLRQFCTMSSRIINFTGLVSSTINYVLNQELSGVGFLDAVKIAQNMGIAETDYSDDTMGLDSARKTVILANSLFNKDITLRDVTYDGIENIDISSMDNEKVYRVVAMIENNGGFHAESKIRAFSRNDFLGMISPLSMAYSMETDINDNINIFENHDGPLQTAAQVVNDVMLLKYKI
binds | Translation initiation factor 5A (protein, UniProt Q6L150 1-129) MSWTEAEVRELKVGRYILIDDSPCRIVDITMSKPGKHGEAKGRIVAIGVFDNQKHSVVYPVKHKVKVPVITKKNAQVLSIANNEVQLMDSETFETFVIPVDPADLEKIKPGMEVPYWEAMGQRKIMLQN
